Experiment [1] has as its target GST-tagged NTD-deleted Smad7 (human). As to the kind of experiment: pull-down; GST pull-down (Glutathione 4B, overnight, 4 °C) from RIPA lysates of HEK293T cells co-transfected with GST-Smad7 WT or truncated constructs and Strep-Gadd45β; immunoblot with anti-Strep (the legend of Fig. 5d says Strep pull-down).
Experiment [2] deals with GST-tagged Smad7 N-terminal domain (NTD) (human). The description is as above.

Results are given in words; binding and its absence hold for the method and conditions named. In cells and extracts the contact can be indirect. For some assays here: Binding calls can cover weak binding; strength is not graded here. Sequences can lack the tags named with a protein.

B1: Strep-tagged Gadd45β (protein, UniProt O75293 1-160)
chain: MTLEELVACDNAAQKMQTVTAAVEELLVAAQRQDRLTVGVYESAKLMNVDPDSVVLCLLAIDEEEEDDIALQIHFTLIQSFCCDNDINIVRVSGMQRLAQLLGEPAETQGTTEARDLHCLLVTNPHTDAWKSHGLVEVASYCEESRGNNQWVPYISLQER
As for B1, the binding entry is reported as “no binding” in experiment [1] and “binds” in experiment [2].
